# Screening data, single-dose tests

T. brucei: 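Whole-parasite assay of Trypanosoma brucei over 72 hours; the read-out is not stated. Tested at 30 µM. Higher reads as stronger inhibition (inferred: compounds with an IC50 in retests scored well above the rest). Values scatter widely below zero; nearly all retest evidence comes from the higher of the two concentrations used. About 64,000 compounds were tested under these conditions; 1.5% (about 940) showed 50% or more at least once.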
Toxoplasma: 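Assay of Toxoplasma gondii numbers, read through their beta-galactosidase reporter with a colour substrate. Tested at 10 µM. The record gives no direction; the compounds picked for IC50 retests had high values, so higher reads as fewer parasites. About 67,000 compounds were tested under these conditions; 0.38% (about 260) showed 50% or more at least once.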
Leishmania in macrophages: 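Cell assay of Leishmania donovani living inside macrophages; the read-out is not stated. Concentration: 30 µM. Direction is inferred from retests: higher values go with stronger inhibition. Of about 69,000 compounds tested this way, about 1,000 (1.5%) reached 50% or more in at least one test.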

Each number is a percent effect as filed. The controls that fix the scale are not given in the record; negative values are as filed. This is an unselected part of the compounds tested.

* CCOc1ccc(S(=O)(=O)Nc2cnc(OC)nc2OC)cc1 | T. brucei: -16.31%; Toxoplasma: -20.47%; Leishmania in macrophages: 29.38%
* CO[C@@H]1c2ccccc2C2(CCN(C(=O)CNC(=O)C(C)C)CC2)[C@H]1O | T. brucei: -60.3%; Toxoplasma: 21.64%; Leishmania in macrophages: 20.83%
* [H][C@@]12CNCC[C@]1(O)CCN(c1nnc(C)c3ccccc13)C2 | T. brucei: -13.37%; Toxoplasma: 4.425%; Leishmania in macrophages: 11.95%
* CC(C)C(N)CNS(=O)(=O)Cc1cccc2cccnc12.Cl (centres undefined) | T. brucei: -7.606%; Toxoplasma: 5.238%; Leishmania in macrophages: 6.419%
* CC(=O)N(Cc1noc(C2CC2)n1)C1CCN(Cc2ccncc2)C1 (centres undefined) | T. brucei: -12.2%; Toxoplasma: 33.76%; Leishmania in macrophages: 5.923%
* Cn1cc(CN2CCC3(CC2)CN(c2cccnc2)C(=O)CO3)cn1 | T. brucei: -56.61%; Toxoplasma: -42.93%; Leishmania in macrophages: 14.61%
* Cc1cc(N2CCCCC2Cn2nc(C)cc2C)n2ncnc2n1 (centres undefined) | T. brucei: -23.5%; Toxoplasma: 7.078%; Leishmania in macrophages: 17.79%
* CNc1ccnc(N2CCC(c3nnc(CN4CCCC4)n3C)CC2)n1 | T. brucei: -22.85%; Toxoplasma: -10.69%; Leishmania in macrophages: -15.21%
* COCCN1CCC(CN(CC2CCCO2)C(=O)CCNC(C)=O)CC1 (centres undefined) | T. brucei: -24.35%; Toxoplasma: -1.047%; Leishmania in macrophages: -4.664%
* CCn1cc(CN2CCC(N3CCC(O)CC3)CC2)cc1C#N | T. brucei: -33.26%; Toxoplasma: -8.732%; Leishmania in macrophages: 0.5494%
* CC1CN(C)CCN1C(=O)c1ccn(-c2ccc(F)cc2)n1 (centres undefined) | T. brucei: -10.42%; Toxoplasma: -3.106%; Leishmania in macrophages: 12.79%
* Cc1ccc(Sc2nccn(C)c2=O)cc1 | T. brucei: 11.41%; Toxoplasma: 5.341%; Leishmania in macrophages: 7.089%
* Fc1ccc(CN2CCC3(CCCN(c4nncs4)C3)C2)cc1.O=C(O)C(F)(F)F (centres undefined) | T. brucei: -195.3%; Toxoplasma: -6.776%; Leishmania in macrophages: 3.302%
* Cc1cccc2c1NC1(CCCC1)NC2=O | T. brucei: -32.5%; Toxoplasma: 4.245%; Leishmania in macrophages: 13.51%
* CCCn1nc(-c2nc(COc3ccccc3)no2)ccc1=O | T. brucei: 1.18%; Toxoplasma: 0.3743%; Leishmania in macrophages: -11.91%
* CCc1nnc(CN(CC)C(=O)C2CC(=O)N(CC)C2)o1 (centres undefined) | T. brucei: 31.62%; Toxoplasma: -11.84%; Leishmania in macrophages: 17.06%
* Cc1nn(CC(C)C)c(N(C)C)c1CNCc1ccc(CO)c(F)c1 | T. brucei: -4.345%; Toxoplasma: -22.27%; Leishmania in macrophages: 18.36%
* COc1ccc(OC)c(C2CCN(C(=O)C3CCS(=O)(=O)CC3)C2)c1 (centres undefined) | T. brucei: -3.756%; Toxoplasma: -0.8125%; Leishmania in macrophages: 5.679%
* Cc1ccc(N2CCC(CCN3CCCC3=O)CC2)nn1 | T. brucei: -42.82%; Toxoplasma: -14.58%; Leishmania in macrophages: 0.2096%
* O=S(=O)(CCO)Cc1ccc(OC(F)F)cc1 | T. brucei: -14.7%; Toxoplasma: 2.412%; Leishmania in macrophages: 29.24%
* COCCOc1cccc(C(=O)N2CCCC(n3cccn3)C2)c1 (centres undefined) | T. brucei: 3.634%; Toxoplasma: -0.8899%; Leishmania in macrophages: 16.6%
* Cc1cnn(CC2CCCCN2C(=O)c2cc(C(N)=O)cs2)c1 (centres undefined) | T. brucei: -6.863%; Toxoplasma: 2.193%; Leishmania in macrophages: -24.54%
* O=C(O)C(F)(F)F.[H][C@]12CCCC(N(C)Cc3ccccn3)[C@@]1([H])CN(c1ncc(C)cn1)C2 (some centres undefined) | T. brucei: -43.75%; Toxoplasma: 16.92%; Leishmania in macrophages: 39.13%
* Cn1cc(CN(C(=O)c2ccc3ncsc3c2)C2CC2)cn1 | T. brucei: -17.74%; Toxoplasma: 13.94%; Leishmania in macrophages: 18.74%
* [H][C@]12CCC[C@@H](CNc3ccccn3)[C@@]1([H])CN(Cc1csnn1)C2 | T. brucei: -160.9%; Toxoplasma: 14.03%; Leishmania in macrophages: 45.22%

Some entries from above, unchanged:

Result for Fc1ccc(CN2CCC3(CCCN(c4nncs4)C3)C2)cc1.O=C(O)C(F)(F)F (centres undefined) was T. brucei: -195.3%; Toxoplasma: -6.776%; Leishmania in macrophages: 3.302%.
Result for COc1ccc(OC)c(C2CCN(C(=O)C3CCS(=O)(=O)CC3)C2)c1 (centres undefined) was T. brucei: -3.756%; Toxoplasma: -0.8125%; Leishmania in macrophages: 5.679%.

Measurements from “University of Dundee, Small-Polar-MMV Screening Library” (2021), ChEMBL document CHEMBL3988442.